Measured values reported in PMC7472415.
Results are given in words; binding and its absence hold for the method and conditions named. Some entries that bind do so weakly or less than the wild type.

The chains behind the UniProt entries cited, without tags or fusion partners. Residues count along the entry.
UniProt O00629, 64-521: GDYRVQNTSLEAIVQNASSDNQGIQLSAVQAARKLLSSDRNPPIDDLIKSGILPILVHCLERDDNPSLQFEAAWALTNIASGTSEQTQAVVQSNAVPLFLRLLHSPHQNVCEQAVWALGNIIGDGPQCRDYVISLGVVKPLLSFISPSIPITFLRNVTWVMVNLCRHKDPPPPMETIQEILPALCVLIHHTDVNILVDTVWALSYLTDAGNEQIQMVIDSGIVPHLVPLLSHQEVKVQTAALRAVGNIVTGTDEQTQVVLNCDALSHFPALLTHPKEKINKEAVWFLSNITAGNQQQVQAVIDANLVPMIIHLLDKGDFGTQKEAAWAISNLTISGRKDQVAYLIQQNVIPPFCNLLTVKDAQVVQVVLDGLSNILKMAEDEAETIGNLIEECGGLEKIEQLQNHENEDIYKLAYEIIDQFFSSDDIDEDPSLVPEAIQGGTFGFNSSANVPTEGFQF
UniProt P52294, 66-538: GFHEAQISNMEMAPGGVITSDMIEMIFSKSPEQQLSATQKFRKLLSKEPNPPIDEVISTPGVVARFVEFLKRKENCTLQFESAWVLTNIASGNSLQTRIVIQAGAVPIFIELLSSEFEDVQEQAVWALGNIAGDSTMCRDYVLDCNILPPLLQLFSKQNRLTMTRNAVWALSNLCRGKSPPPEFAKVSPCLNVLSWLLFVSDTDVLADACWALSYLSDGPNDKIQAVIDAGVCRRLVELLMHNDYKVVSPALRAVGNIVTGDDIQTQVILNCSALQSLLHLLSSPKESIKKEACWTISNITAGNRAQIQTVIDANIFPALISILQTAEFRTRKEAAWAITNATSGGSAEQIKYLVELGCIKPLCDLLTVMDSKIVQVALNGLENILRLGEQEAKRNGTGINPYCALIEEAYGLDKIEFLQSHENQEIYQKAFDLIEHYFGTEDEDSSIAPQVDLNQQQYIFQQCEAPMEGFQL
UniProt P15682, 1-21: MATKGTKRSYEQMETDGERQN
UniProt O60684, 58-536: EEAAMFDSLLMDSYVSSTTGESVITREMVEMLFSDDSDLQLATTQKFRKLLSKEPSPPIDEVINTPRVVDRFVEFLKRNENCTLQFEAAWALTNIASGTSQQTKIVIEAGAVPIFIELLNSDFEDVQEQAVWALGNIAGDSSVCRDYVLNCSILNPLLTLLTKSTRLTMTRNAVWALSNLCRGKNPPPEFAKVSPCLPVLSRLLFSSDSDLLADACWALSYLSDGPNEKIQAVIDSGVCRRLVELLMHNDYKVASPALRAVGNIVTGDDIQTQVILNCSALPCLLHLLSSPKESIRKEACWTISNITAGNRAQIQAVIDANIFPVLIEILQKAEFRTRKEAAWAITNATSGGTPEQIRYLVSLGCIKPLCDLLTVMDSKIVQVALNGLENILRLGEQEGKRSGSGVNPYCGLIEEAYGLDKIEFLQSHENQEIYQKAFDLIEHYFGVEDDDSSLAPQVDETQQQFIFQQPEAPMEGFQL

Assays:
[1] = biological target: human importin-α3 without its importin-β binding (IBB) domain (residues 64 to 521) (human) (UniProt O00629)
[2] = biological target: human importin-α5 without its importin-β binding (IBB) domain (residues 66 to 538) (human) (UniProt P52294)
[3] = biological target: A/NP_TAIL-YFP, nucleoprotein tail of A/WSN/1933 (residues 1 to 21) fused to yellow fluorescent prote (influenza A virus A/WSN/1933) (UniProt P15682); test: SEC; both purified

human importin-α3 without its importin-β binding (IBB) domain (residues 64 to 521) (from UniProt O00629 64-521) (domain or fragment)
binding [1]: no binding

human importin-α5 without its importin-β binding (IBB) domain (residues 66 to 538) (from UniProt P52294 66-538) (domain or fragment)
binding [2]: no binding

human importin-α7 without its importin-β binding (IBB) domain (residues 58 to 536) (from UniProt O60684 58-536) (domain or fragment)
binding [3]: binds
